US6361792B1, “Lipid dispersions and methods of use” (Alliance Pharmaceutical Corp., priority 1987, dated 2002)
Entries after “also recorded” stand apart in the source; their conditions may differ. At least one compound was matched to its structure with a doubt left.

Tested on: conscious swine
Assay: Delayed febrile response (core body temperature) to intravenous lipid dispersion in conscious swine, with or without prophylaxis
Format: in vivo
Settings: oral 1 mg/kg 12 h and 2 h before injection (dexamethasone)
Description: Swine were instrumented 48 hours prior to study for determination of core body temperature using a catheter-tipped thermistor, and for intravenous injection using an axillary vein catheter. On the day of study, core body temperature was determined at baseline and at regular intervals for 6 h after intravenous injection of Imagent®BP.

Question: How did the “effect on febrile response to Imagent BP” value turn out when C[C@@H]1C[C@H]2[C@@H]3CCC4=CC(=O)C=C[C@]4(C)[C@@]3(F)[C@@H](O)C[C@]2(C)[C@@]1(O)C(=O)CO [dexamethasone] was run?
Answer: Its value is “effectively suppresses or eliminates the response; also recorded: completely blocked”.
